Assay results reported in the supplement of paper PMC10849652.
This is one part of the list. Residues, ends and D or L forms follow the SMILES beside them. *: point of attachment. Cbz = O=C(OCc1ccccc1)*

The chains behind the UniProt entries cited, without tags or fusion partners. Where a name states a change or a piece, a line headed by the entry shows the natural chain unless it says otherwise.
UniProt Q9BSJ8: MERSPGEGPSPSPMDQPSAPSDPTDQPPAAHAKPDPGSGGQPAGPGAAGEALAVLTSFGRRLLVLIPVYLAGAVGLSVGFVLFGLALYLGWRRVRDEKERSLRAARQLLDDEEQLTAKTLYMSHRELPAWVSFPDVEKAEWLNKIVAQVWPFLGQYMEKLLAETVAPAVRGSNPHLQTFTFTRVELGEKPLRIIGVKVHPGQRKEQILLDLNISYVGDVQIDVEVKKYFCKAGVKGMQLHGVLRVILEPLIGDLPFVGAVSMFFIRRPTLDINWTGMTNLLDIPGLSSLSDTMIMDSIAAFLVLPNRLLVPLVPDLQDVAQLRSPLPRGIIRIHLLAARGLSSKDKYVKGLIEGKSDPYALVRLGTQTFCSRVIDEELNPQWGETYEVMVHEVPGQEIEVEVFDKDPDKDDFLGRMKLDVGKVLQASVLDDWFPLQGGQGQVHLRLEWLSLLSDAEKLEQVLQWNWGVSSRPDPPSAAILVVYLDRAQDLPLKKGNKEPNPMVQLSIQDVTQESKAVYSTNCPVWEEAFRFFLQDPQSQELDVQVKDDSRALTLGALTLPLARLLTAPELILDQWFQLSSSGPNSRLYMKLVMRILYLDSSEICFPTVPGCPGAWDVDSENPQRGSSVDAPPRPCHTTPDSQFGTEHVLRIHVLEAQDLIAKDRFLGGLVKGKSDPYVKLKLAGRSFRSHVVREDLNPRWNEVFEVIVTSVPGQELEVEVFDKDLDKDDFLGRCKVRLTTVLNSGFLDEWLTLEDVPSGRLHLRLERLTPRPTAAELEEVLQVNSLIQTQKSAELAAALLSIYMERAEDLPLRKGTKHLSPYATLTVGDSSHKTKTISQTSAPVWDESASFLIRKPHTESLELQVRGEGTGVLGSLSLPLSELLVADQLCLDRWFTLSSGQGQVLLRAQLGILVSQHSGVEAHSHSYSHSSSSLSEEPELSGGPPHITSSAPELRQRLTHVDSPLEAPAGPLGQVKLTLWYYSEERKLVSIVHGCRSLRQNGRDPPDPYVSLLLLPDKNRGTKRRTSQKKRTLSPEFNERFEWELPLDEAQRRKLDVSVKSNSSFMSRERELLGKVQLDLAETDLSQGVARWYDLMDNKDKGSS
UniProt O94905: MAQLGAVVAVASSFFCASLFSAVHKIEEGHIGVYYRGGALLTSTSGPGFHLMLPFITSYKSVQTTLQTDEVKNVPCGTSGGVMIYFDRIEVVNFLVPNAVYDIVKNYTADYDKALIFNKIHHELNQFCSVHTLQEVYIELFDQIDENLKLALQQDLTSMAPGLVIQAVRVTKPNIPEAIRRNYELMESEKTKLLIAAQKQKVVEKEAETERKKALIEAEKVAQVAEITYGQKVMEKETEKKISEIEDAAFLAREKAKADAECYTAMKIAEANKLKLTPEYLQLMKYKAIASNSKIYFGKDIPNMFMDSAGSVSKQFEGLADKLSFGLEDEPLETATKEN
UniProt Q9NSI2: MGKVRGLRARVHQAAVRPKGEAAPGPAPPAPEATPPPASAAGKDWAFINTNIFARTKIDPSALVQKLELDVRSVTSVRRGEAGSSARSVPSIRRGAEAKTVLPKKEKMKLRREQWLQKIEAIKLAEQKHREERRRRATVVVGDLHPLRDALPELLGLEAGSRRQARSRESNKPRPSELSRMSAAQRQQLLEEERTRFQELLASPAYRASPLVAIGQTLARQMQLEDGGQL
UniProt Q96DF8: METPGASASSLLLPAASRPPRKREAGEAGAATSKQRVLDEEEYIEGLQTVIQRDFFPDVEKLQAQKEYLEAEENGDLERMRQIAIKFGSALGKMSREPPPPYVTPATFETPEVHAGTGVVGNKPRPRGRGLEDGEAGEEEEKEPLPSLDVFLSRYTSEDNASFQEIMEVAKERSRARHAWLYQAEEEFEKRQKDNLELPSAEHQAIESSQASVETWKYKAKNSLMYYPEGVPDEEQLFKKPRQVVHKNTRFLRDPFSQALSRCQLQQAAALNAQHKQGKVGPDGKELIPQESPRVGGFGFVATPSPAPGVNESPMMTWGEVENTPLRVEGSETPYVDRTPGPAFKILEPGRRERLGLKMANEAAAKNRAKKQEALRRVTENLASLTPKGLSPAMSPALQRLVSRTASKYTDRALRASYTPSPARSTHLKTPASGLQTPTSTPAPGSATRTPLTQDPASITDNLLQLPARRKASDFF
UniProt Q96DZ1: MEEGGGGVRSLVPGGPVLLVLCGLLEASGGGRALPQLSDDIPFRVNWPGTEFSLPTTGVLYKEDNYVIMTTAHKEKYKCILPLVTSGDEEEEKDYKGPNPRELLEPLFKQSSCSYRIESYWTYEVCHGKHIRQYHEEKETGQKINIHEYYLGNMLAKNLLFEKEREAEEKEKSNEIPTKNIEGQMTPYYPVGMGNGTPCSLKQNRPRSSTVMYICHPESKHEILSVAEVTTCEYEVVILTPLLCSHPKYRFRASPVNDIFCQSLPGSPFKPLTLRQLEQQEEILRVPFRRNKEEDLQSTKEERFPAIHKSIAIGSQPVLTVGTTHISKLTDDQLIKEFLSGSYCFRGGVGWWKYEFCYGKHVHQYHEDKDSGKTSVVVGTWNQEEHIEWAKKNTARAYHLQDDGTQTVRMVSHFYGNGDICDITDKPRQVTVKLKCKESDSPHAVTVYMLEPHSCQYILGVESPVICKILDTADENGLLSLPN
UniProt Q8TAG9: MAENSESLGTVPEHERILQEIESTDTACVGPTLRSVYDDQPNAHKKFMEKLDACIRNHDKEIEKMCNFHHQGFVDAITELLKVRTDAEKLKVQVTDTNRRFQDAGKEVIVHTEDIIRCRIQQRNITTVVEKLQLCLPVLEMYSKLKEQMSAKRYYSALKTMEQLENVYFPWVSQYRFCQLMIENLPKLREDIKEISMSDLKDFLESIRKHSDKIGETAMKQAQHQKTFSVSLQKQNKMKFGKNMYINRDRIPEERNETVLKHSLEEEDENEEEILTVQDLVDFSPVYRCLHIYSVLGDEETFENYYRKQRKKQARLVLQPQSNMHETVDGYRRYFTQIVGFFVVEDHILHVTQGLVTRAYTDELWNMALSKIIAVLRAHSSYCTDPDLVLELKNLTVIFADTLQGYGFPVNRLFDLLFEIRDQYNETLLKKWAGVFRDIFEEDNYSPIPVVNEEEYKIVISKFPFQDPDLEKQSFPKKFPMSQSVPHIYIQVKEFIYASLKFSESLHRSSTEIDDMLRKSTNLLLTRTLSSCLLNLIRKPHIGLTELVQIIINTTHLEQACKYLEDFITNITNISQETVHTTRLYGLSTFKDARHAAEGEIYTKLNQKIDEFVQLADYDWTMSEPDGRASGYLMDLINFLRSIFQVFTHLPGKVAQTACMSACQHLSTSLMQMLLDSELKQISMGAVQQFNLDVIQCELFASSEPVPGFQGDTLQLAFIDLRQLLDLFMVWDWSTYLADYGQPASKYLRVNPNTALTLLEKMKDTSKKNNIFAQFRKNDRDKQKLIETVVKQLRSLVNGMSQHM
UniProt O75460: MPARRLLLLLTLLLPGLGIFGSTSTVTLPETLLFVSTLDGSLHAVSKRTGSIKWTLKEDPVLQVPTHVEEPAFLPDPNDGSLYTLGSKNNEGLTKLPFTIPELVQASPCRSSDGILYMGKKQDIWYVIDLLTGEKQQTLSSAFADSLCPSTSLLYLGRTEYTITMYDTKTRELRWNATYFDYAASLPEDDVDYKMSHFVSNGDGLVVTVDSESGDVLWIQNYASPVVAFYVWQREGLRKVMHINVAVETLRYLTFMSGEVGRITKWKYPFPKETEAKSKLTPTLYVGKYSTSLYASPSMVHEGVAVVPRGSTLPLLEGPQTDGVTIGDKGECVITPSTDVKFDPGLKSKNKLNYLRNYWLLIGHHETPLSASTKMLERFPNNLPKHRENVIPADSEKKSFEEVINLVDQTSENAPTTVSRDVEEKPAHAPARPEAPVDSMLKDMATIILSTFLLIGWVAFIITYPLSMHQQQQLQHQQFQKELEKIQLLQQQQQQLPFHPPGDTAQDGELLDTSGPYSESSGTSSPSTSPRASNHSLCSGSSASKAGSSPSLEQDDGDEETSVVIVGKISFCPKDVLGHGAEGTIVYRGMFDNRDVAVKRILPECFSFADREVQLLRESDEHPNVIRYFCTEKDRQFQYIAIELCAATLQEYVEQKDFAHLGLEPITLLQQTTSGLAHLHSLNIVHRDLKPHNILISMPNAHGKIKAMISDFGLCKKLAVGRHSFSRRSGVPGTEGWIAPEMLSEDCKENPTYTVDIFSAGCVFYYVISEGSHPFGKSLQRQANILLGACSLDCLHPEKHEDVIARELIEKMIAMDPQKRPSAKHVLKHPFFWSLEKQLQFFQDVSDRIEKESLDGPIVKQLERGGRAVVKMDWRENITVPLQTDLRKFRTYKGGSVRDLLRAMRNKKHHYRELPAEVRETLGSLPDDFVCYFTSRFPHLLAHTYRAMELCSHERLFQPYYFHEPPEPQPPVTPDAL
UniProt Q86X53: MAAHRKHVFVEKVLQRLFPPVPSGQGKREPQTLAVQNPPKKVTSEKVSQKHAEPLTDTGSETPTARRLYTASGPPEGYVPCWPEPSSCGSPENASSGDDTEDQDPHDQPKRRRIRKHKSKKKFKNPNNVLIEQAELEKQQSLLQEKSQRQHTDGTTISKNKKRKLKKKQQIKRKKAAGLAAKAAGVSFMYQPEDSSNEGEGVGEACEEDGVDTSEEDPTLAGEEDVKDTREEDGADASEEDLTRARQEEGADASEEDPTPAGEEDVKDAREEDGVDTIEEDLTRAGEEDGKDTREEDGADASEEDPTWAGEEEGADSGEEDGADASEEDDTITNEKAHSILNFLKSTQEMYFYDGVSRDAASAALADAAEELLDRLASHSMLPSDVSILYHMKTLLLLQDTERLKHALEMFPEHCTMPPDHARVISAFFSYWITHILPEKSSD
UniProt Q13216, whole entry, looked up: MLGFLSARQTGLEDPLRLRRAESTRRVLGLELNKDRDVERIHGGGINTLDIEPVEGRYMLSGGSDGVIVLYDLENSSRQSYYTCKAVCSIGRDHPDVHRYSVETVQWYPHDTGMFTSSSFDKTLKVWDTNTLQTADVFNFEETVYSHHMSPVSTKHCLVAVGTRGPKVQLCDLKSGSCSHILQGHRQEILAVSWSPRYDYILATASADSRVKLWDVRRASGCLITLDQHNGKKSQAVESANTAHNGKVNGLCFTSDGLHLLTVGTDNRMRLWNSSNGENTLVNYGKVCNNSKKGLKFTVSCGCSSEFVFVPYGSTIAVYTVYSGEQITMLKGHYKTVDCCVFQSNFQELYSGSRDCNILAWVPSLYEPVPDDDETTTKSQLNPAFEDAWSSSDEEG
UniProt Q8N0U4: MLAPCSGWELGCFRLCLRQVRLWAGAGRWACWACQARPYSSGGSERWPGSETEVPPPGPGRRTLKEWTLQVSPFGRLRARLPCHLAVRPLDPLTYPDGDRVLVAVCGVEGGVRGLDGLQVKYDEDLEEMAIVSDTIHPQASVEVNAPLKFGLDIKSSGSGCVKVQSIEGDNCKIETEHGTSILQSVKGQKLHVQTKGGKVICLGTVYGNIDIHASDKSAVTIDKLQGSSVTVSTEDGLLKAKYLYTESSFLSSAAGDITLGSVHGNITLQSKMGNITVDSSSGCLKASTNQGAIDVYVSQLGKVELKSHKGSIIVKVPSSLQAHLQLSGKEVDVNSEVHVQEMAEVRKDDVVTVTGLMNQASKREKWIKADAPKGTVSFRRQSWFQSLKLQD
UniProt Q8TBP5: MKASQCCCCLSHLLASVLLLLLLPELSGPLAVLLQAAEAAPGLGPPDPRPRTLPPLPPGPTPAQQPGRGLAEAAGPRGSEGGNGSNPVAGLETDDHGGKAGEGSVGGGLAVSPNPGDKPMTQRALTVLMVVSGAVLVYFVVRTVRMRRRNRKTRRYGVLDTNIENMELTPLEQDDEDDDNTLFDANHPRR
UniProt Q15910, whole entry, looked up: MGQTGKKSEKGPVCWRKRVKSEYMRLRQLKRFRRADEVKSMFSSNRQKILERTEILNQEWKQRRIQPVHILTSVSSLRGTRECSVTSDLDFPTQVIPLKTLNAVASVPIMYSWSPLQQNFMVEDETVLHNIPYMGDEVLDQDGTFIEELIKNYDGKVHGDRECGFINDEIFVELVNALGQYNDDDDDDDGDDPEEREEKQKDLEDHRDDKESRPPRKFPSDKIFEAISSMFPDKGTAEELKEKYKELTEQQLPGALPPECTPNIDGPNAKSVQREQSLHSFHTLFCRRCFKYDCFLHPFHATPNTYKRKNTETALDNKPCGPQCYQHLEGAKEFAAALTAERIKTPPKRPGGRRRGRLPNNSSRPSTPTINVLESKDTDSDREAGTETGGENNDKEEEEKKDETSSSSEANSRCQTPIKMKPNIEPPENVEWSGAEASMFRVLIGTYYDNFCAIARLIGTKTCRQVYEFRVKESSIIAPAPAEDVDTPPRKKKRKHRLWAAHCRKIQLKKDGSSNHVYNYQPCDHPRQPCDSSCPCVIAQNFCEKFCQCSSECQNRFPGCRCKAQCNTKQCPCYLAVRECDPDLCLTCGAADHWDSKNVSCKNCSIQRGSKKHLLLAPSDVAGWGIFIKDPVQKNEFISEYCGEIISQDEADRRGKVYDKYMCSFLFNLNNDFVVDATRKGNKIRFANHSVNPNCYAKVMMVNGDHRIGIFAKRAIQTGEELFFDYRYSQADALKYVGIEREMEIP

How the values were obtained:
Experiment in all cases: log2 fold change, soluble protein after heating vs DMSO (PISA); higher = thermal stabilisation; K562 cells, 10 uM, 30 min; active = over 0.2 and 3.5 SD of the protein, either way, in both replicates (recomputed)
[1] = compound: C1COCCN1CCN2C3=CC=CC=C3N=C2NC(=O)C4=CC(=CC=C4)[N+](=O)[O-] [IRAK-1-4 Inhibitor I]
In short: (§1)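 Aliquots of K562 cells (2×10^6 cells/mL) treated with 10 μM compound for 30 min were heated for 3 min over 48°C-58°C. After pooling and extraction in PBS with 0.5% NP-40 at 4°C, soluble protein from a 21,000xg, 90 min spin was quantified by TMTpro 16plex LC-MS/MS with channel sums equalised. Thermal stability is expressed against control samples, from duplicates, as a log2 fold change.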

[2] = compound: C=CC(=O)N1CCC[C@@H](n2nc(-c3ccc(Oc4ccccc4)cc3)c3c(N)ncnc32)C1 [ibrutinib]
In short: as §1

[3] = compound: CC(=O)c1cnc2ccc(-c3cc(Cl)c(O)c(Cl)c3)nc2c1N[C@H]1CC[C@H](CN(C)C)CC1
In short: as §1

[4] = compound: CC(C)(C)Cn1c(N)nc2ccc(-c3[nH]c(C(C)(C)C)nc3-c3ccc(F)cc3)nc21 [ralimetinib]
In short: as §1

[5] = compound: CC(C)(O)CC(=O)NCCn1ccc2ncnc(Nc3ccc(Oc4cccc(C(F)(F)F)c4)c(Cl)c3)c21
In short: as §1

[6] = compound: CC(C)C1=C2N=C(C=C(N2N=C1)NCC3=CC=CC=C3)NCCCCCCN
In short: as §1

[7] = compound: CC(C)C[C@@H](C=O)NC(=O)[C@H](CC(C)C)NC(=O)[C@H](CC(C)C)NC(=O)OCc1ccccc1
In short: as §1

[8] = compound: CC(C)N(C[C@H]1O[C@@H](n2cnc3c(N)ncnc32)[C@H](O)[C@@H]1O)[C@H]1C[C@@H](CCc2nc3cc(C(C)(C)C)ccc3[nH]2)C1 [pinometostat]
In short: as §1

[9] = compound: CC1=C(C2=C(C=C1)C(=O)C3=CC=CC=C3N2CCCN)C
In short: as §1

[10] = compound: CC1=C(C(CC(=O)N1)C2=CC=C(C=C2)C(F)(F)F)C(=O)NC3=C(C=C4C(=C3)C=NN4)F
In short: as §1

Measured: log2 fold change

EXOC2 (UniProt Q96KP1)
active: [6] -0.43
inactive: [1] -0.092 | [2] -0.018 | [3] -0.048 | [4] 0.08 | [5] -0.052 | [7] 0.027 | [8] 0.172 | [9] 0.007

FADS1, A0A0A0MR51
inactive: [1] 0.085 | [2] 0.015 | [3] -0.07 | [4] 0.017 | [6] -0.044 | [7] 0.05 | [8] 0.027 | [9] 0.003
active: [5] 0.355

ESYT1 isoform 2 (UniProt Q9BSJ8)
inactive: [1] -0.126 | [2] -0.046 | [3] -0.048 | [4] 0 | [5] -0.075 | [7] 0.053 | [8] 0.152 | [9] 0.031
active: [6] -0.321

ERLIN2 (UniProt O94905)
active: [6] -0.296
inactive: [1] -0.089 | [2] 0.001 | [3] 0.058 | [4] 0.004 | [5] 0 | [7] 0.035 | [8] 0.093 | [9] 0.013

FAM207A (UniProt Q9NSI2)
inactive: [1] -0.043 | [2] -0.082 | [3] 0.057 | [4] 0.123 | [5] -0.033 | [6] -0.066 | [7] 0.088 | [8] 0.024 | [9] 0.038

EXOC5 (UniProt O00471)
active: [6] -0.344
inactive: [1] -0.062 | [2] -0.002 | [3] -0.01 | [4] 0.015 | [5] -0.03 | [7] 0.014 | [8] 0.078 | [9] -0.061

ESS2 (UniProt Q96DF8)
inactive: [1] 0.032 | [2] 0.025 | [3] 0.031 | [4] -0.009 | [5] 0.013 | [6] 0.002 | [7] 0.136 | [8] 0.056 | [9] -0.021

FAF2 (UniProt Q96CS3)
inactive: [1] 0 | [2] -0.026 | [3] -0.034 | [4] 0.103 | [5] -0.029 | [6] -0.044 | [7] 0.03 | [8] 0.053 | [9] 0.044

FAM117A (UniProt Q9C073)
active: [3] -0.833
inactive: [1] -0.004 | [2] 0.001 | [4] -0.125 | [5] -0.068 | [6] -0.102 | [7] 0.126 | [8] -0.003 | [9] 0.011

ERLEC1 (UniProt Q96DZ1)
inactive: [1] 0.006 | [2] 0.022 | [3] -0.02 | [4] 0.016 | [5] -0.006 | [6] -0.032 | [7] -0.013 | [8] 0.03 | [10] 0.013 | [9] 0.022

EXD2 (UniProt Q9NVH0)
inactive: [1] -0.099 | [4] 0.091 | [5] 0.164 | [6] -0.134 | [7] 0.127 | [8] 0.175

FAM117B (UniProt Q6P1L5)
inactive: [1] 0.238 | [3] -0.593 | [4] -0.177 | [5] -0.255 | [6] 0.144 | [7] 0.016 | [8] -0.175 | [9] 0.037

ESF1 (UniProt Q9H501)
inactive: [2] -0.207 | [4] 0.087 | [7] 0.376

EXOC6 (UniProt Q8TAG9)
active: [6] -0.397
inactive: [1] -0.046 | [2] -0.007 | [3] -0.014 | [4] 0.102 | [5] -0.084 | [7] 0.042 | [8] 0.056 | [9] 0.032

ERN1 (UniProt O75460)
inactive: [1] -0.122 | [4] -0.123 | [5] -0.163 | [6] -0.203 | [7] 0.249 | [8] 0.06 | [10] -0.001 | [9] 0.084

ESRRB isoform 1 (UniProt O95718)
inactive: [1] -0.009 | [2] 0.031 | [6] 0.181 | [8] -0.132

FAM114A1 (UniProt Q8IWE2)
inactive: [1] 0.052 | [4] 0.131 | [5] -0.076 | [6] 0.002 | [7] 0.282 | [8] -0.145 | [9] -0.094

ERICH1 (UniProt Q86X53)
inactive: [1] -0.055 | [8] 0.141 | [9] 0.074

ERCC8 (UniProt Q13216)
inactive: [1] 0.034 | [2] 0.047 | [3] -0.084 | [4] -0.02 | [6] 0.067 | [7] 0.007 | [8] -0.017 | [10] 0.038 | [9] 0.029

EPB41L2 isoform 4 (UniProt O43491)
inactive: [1] -0.354 | [2] 0.063 | [5] -0.06 | [8] -0.035 | [10] -0.201

FAM185A (UniProt Q8N0U4)
inactive: [1] 0.046 | [2] 0.1 | [3] -0.013 | [4] -0.047 | [6] 0.194 | [7] -0.145 | [8] -0.025 | [10] 0.169 | [9] -0.121

ETF1 isoform 2 (UniProt P62495)
inactive: [2] -0.066 | [3] -0.047 | [4] -0.263 | [7] 0.373

Six neighbouring records out of the list so far, quoted:
ERN1 (UniProt O75460)
inactive: [1] -0.122 | [4] -0.123 | [5] -0.163 | [6] -0.203 | [7] 0.249 | [8] 0.06 | [10] -0.001 | [9] 0.084

ESRRB isoform 1 (UniProt O95718)
inactive: [1] -0.009 | [2] 0.031 | [6] 0.181 | [8] -0.132

FAM114A1 (UniProt Q8IWE2)
inactive: [1] 0.052 | [4] 0.131 | [5] -0.076 | [6] 0.002 | [7] 0.282 | [8] -0.145 | [9] -0.094

ERICH1 (UniProt Q86X53)
inactive: [1] -0.055 | [8] 0.141 | [9] 0.074

ERCC8 (UniProt Q13216)
inactive: [1] 0.034 | [2] 0.047 | [3] -0.084 | [4] -0.02 | [6] 0.067 | [7] 0.007 | [8] -0.017 | [10] 0.038 | [9] 0.029

EPB41L2 isoform 4 (UniProt O43491)
inactive: [1] -0.354 | [2] 0.063 | [5] -0.06 | [8] -0.035 | [10] -0.201

Next part

ERO1B (UniProt Q86YB8)
inactive: [1] -0.091 | [2] -0.053 | [3] -0.029 | [5] -0.035 | [6] -0.011 | [8] 0.097 | [10] 0.065

EPN1 isoform 3 (UniProt Q9Y6I3)
inactive: [2] 0.092

EWSR1 (UniProt H7BY36)
inactive: [2] 0.345 | [3] -0.021 | [5] 0.031 | [6] -0.07 | [10] 0.586

F9 (UniProt P00740)
inactive: [2] 0.275 | [3] -0.006 | [10] -0.159 | [9] -0.023

FAM193B (UniProt Q96PV7)
inactive: [1] -0.049 | [2] -0.266 | [3] -0.03 | [5] -0.05 | [8] 0.112 | [9] -0.181

EPS15L1 (UniProt M0QY01)
inactive: [1] 0.047 | [5] 0.084 | [8] 0.127

EPPK1 (UniProt P58107)
inactive: [1] -0.097 | [2] -0.102 | [4] 0.236 | [5] 0.085 | [6] -0.379 | [7] 0.079 | [8] 0.519 | [10] 0.077 | [9] 0.671

FAM174A (UniProt Q8TBP5)
inactive: [1] -0.112 | [8] 0.004 | [9] -0.04

EZH2 isoform 2 (UniProt Q15910)
inactive: [1] -0.247 | [2] -0.114 | [3] 0.115 | [5] -0.041 | [6] -0.239 | [8] 0.068 | [9] -0.11

EPHA6 (UniProt Q9UF33)
inactive: [1] 0.102 | [2] 0.287 | [3] -0.183 | [4] -0.381 | [5] 0.3 | [7] 0.565 | [8] 0.035 | [10] 0.119 | [9] -0.023
